Data on 42 molecules can be found in PubChem BioAssay.

Test [1] can be described thus: Drosophila SCA1 whole organism dose response for polyglutamine toxicity reduction (AID 1595). The conditions noted are these: Drosophila SCA1 polyglutamine model, at 1 µM, stronger effect = higher value.
The next test is described as follows: PubChem AID 1597. The conditions noted are these: Drosophila SCA1 polyglutamine model, at 1 µM, stronger effect = higher value.

This is one part of the list. Potency and affinity values are given separately. The source made no clear call on entries shown without one.

For the molecule `CC1=C2C(=CO[C@H](C)[C@H]2C)C(=O)C(C(=O)O)=C1O`, the values for the suppression of toxicity (in test [1]; in the test “PubChem AID 1597”) were 17.1 and 20.7, respectively.

Regarding `CC(C)(C)c1ccc(C(O)CCCN2CCC(C(O)(c3ccccc3)c3ccccc3)CC2)cc1` (centres undefined), the suppression of toxicity in test [1] was found to be 0; in the test “PubChem AID 1597” it was 1.43.

Regarding `Cn1cnc2c1c(=O)[nH]c(=O)n2C`, the suppression of toxicity (in test [1]; in “PubChem AID 1597”) was 1.43 each time.

For `C=C1c2cccc(O)c2C(O)=C2C(=O)[C@]3(O)C(O)=C(C(N)=O)C(=O)[C@@H](N(C)C)[C@@H]3[C@@H](O)[C@H]12`, the suppression of toxicity in test [1] was determined as 0; in “PubChem AID 1597”, 6.42.

As for `CC[C@H]1OC(=O)[C@H](C)[C@@H](O[C@H]2C[C@@](C)(OC)[C@@H](O)[C@H](C)O2)[C@H](C)[C@@H](O[C@@H]2O[C@H](C)C[C@H](N(C)C)[C@H]2O)[C@](C)(O)C[C@@H](C)/C(=N\OCOCCOC)[C@H](C)[C@@H](O)[C@]1(C)O`, the suppression of toxicity in test [1] was 0; in “PubChem AID 1597”, 17.1.

For `NC[C@@H]1O[C@H](O[C@H]2[C@@H](O)[C@H](O[C@@H]3[C@@H](O)[C@H](N)C[C@H](N)[C@H]3O[C@@H]3O[C@H](CO)[C@@H](O)C[C@H]3N)O[C@@H]2CO)[C@H](N)[C@@H](O)[C@@H]1O[C@H]1O[C@H](CO)[C@@H](O)[C@H](O)[C@@H]1O`, the suppression of toxicity in test [1] was 0; in “PubChem AID 1597”, 3.58.

Turning to `CC12CCC(CC1=O)C2(C)C` (centres undefined), the suppression of toxicity in test [1] turned out to be 1.43; in “PubChem AID 1597”, 3.57.

As to `CC1CC2C3CCC4=CC(=O)C=CC4(C)[C@@]3(F)C(O)CC2(C)[C@@]1(O)C(=O)CO` (some centres undefined), the suppression of toxicity in test [1] was determined as 2.86; in “PubChem AID 1597”, 11.4.

As for `NC(=NCCCCCCN=C(N)/N=C(\N)Nc1ccc(Cl)cc1)/N=C(\N)Nc1ccc(Cl)cc1`, the suppression of toxicity in test [1] stood at 0; in the test “PubChem AID 1597” it was 2.85.

As to `Oc1ccc(Cl)c2cccnc12`, the results for the suppression of toxicity (in test [1]; in the test “PubChem AID 1597”) were 7.14 and 7.86, respectively.

Consider `C[C@]12CCC(=O)C=C1CCC1C2[C@@H](O)C[C@@]2(C)C1CC[C@]2(O)C(=O)CO` (some centres undefined), for which the figures for the suppression of toxicity (in test [1]; in the test “PubChem AID 1597”) were 0 and 2.15, respectively.

On to `CC(C(=O)O)c1ccc(-c2ccccc2)c(F)c1` (centres undefined), for which the values for the suppression of toxicity (in test [1]; in the test “PubChem AID 1597”) were 1.43 and 6.43, respectively.

As for `C[C@H]1O[C@@H](O[C@H]2[C@@H](O)C[C@H](O[C@H]3[C@@H](O)C[C@H](O[C@H]4CC[C@]5(C)C6C[C@@H](O)[C@]7(C)[C@@H](C8=CC(=O)OC8)CC[C@]7(O)C6CC[C@@H]5C4)O[C@@H]3C)O[C@@H]2C)C[C@H](O)[C@@H]1O` (some centres undefined), the suppression of toxicity came to 0 in test [1] and 2.86 in the test “PubChem AID 1597”.

Take `CN(C)CCCO[C@H]1[C@@H](C(O)CO)OC2OC(C)(C)O[C@@H]21` (some centres undefined): the suppression of toxicity was found to be 1.43 in test [1] and 7.14 in “PubChem AID 1597”.

Regarding `CN1CCN(CCCN2c3ccccc3Sc3ccc(Cl)cc32)CC1`, the suppression of toxicity in test [1] is 31.4; in “PubChem AID 1597” it was 7.14.

Take `O=C(c1ccccc1)c1ccc2n1CCC2C(=O)O` (centres undefined): the suppression of toxicity in test [1] came out at 0; in the test “PubChem AID 1597” it was 0.715.

As for `CC12CCC(CC1)C(C)(C)O2`, the suppression of toxicity in test [1] worked out at 4.29; in “PubChem AID 1597” it was 6.43.

For the molecule `O=C(O)c1cn(C2CC2)c2cc(N3CCNCC3)c(F)cc2c1=O`, the suppression of toxicity (in test [1]; in “PubChem AID 1597”) was 2.86 in each case.

Take `CC(C)COCC(CN(Cc1ccccc1)c1ccccc1)N1CCCC1` (centres undefined): the suppression of toxicity in test [1] came out at 5.71; in “PubChem AID 1597” it was 12.1.

As for `Nc1ccc(C(=O)O)c(O)c1`, the suppression of toxicity in test [1] was 1.43; in “PubChem AID 1597”, 6.43.

With `O=C(O)c1cccnc1`, the suppression of toxicity was 17.1 in test [1] and 6.42 in the test “PubChem AID 1597”.

In the case of `O=C(O)CCC(=O)OC[C@@H](NC(=O)C(Cl)Cl)[C@H](O)c1ccc([N+](=O)[O-])cc1`, the suppression of toxicity in test [1] came out at 10; in the test “PubChem AID 1597” it was 2.15.

Consider `O[N+]1=CC=CCC1=S.On1ccccc1=S.[Zn]`, for which the suppression of toxicity is 7.14 in test [1] and 4.29 in “PubChem AID 1597”.

In the case of `CO[C@@]1(NC(=O)Cc2cccs2)C(=O)N2C(C(=O)O)=C(COC(N)=O)CS[C@@H]21`, the figures for the suppression of toxicity (in test [1]; in “PubChem AID 1597”) were 1.43 and 3.58, respectively.

As for `CC[C@@H](C(=O)[C@@H](C)[C@@H](O)[C@H](C)[C@@H]1O[C@@H]([C@@H](CC)C(=O)O)CC[C@@H]1C)[C@H]1OC2(C=C[C@@H](O)[C@]3(CC[C@@](C)([C@H]4CC[C@](O)(CC)[C@H](C)O4)O3)O2)[C@H](C)C[C@@H]1C` (some centres undefined), the suppression of toxicity in test [1] was 2.85; in “PubChem AID 1597” it was 11.4.

As to `CC1CCCC(C)N1NC(=O)c1ccc(Cl)c(S(N)(=O)=O)c1` (centres undefined), the suppression of toxicity in test [1] came to 1.43; in “PubChem AID 1597” it was 5.71.

For `CN(C)C(=O)C(CCN1CCC(O)(c2ccc(Cl)cc2)CC1)(c1ccccc1)c1ccccc1`, the suppression of toxicity came out at 11.4 in test [1] and 17.9 in “PubChem AID 1597”.

For `CCN(CC)CCCC(C)Nc1c2ccc(Cl)cc2nc2ccc(OC)cc12` (centres undefined), the figures for the suppression of toxicity (in test [1]; in the test “PubChem AID 1597”) were 8.57 and 7.14, respectively.

Consider `NCCCCC(N)C(=O)NC(Cc1c[nH]c2ccccc12)C(=O)NC(CCCCN)C(=O)O` (centres undefined), for which the figures for the suppression of toxicity (in test [1]; in “PubChem AID 1597”) were 2.86 and 15, respectively.

`NS(=O)(=O)c1cc(C(=O)O)c(NCc2ccco2)cc1Cl`: the suppression of toxicity in test [1] was 25.7; in “PubChem AID 1597” it was 3.57.

`COc1ccc2c(c1OC)C(=O)OC2[C@H]1c2c(cc3c(c2OC)OCO3)CCN1C` (some centres undefined): the figures for the suppression of toxicity (in test [1]; in the test “PubChem AID 1597”) were 5.71 and 7.89, respectively.

Turning to `COc1ccc(/C=C/c2cc(O)cc(O[C@@H]3O[C@H](CO)[C@@H](O)[C@H](O)[C@H]3O)c2)cc1O`, the suppression of toxicity came out at 1.43 in test [1] and 0.715 in “PubChem AID 1597”.

Consider `COc1ccc(C[C@H](N)C(=O)N[C@@H]2[C@@H](CO)OC(n3cnc4c(N(C)C)ncnc43)[C@@H]2O)cc1` (some centres undefined), for which the suppression of toxicity turned out to be 7.14 in test [1] and 7.86 in the test “PubChem AID 1597”.

Turning to `COc1ccc(C2Sc3ccccc3N(CCN(C)C)C(=O)C2OC(C)=O)cc1` (centres undefined), the suppression of toxicity in test [1] is 0; in the test “PubChem AID 1597”, 7.86.

In the case of `CC12CCC3c4ccc(OCc5ccccc5)cc4CCC3C1C[C@@H](O)[C@@H]2O` (some centres undefined), the figures for the suppression of toxicity (in test [1]; in “PubChem AID 1597”) were 0 and 1.43, respectively.

Regarding `OCCN(CCO)c1nc(N2CCCCC2)c2nc(N(CCO)CCO)nc(N3CCCCC3)c2n1`, the values for the suppression of toxicity (in test [1]; in the test “PubChem AID 1597”) were 4.29 and 7.86, respectively.

Turning to `CS(=O)(=O)Nc1ccc([N+](=O)[O-])cc1Oc1ccccc1`, the suppression of toxicity in test [1] came out at 20; in “PubChem AID 1597” it was 3.57.

Turning to `CCN(CC)CCOC(=O)C(c1ccccc1)c1ccccc1`, the suppression of toxicity in test [1] was 8.57; in the test “PubChem AID 1597” it was 12.1.

Regarding `C[C@]12CCC3c4ccc(OC(=O)CCC(=O)O)cc4CCC3C1CCC2=O` (some centres undefined), the suppression of toxicity in test [1] was 2.86; in “PubChem AID 1597”, 10.

For the molecule `CCCCC1C(=O)N(c2ccccc2)N(c2ccccc2)C1=O`, the suppression of toxicity is 5.71 in test [1] and 2.15 in the test “PubChem AID 1597”.

Consider `CCCOc1ccc2nc(NC(=O)OC)[nH]c2c1`, for which the suppression of toxicity in test [1] amounted to 4.29; in “PubChem AID 1597”, 12.1.

As for `C=C1C(=O)O[C@@H]2C3OC3(C)CC/C=C(\C)CC[C@@H]12` (some centres undefined), the values for the suppression of toxicity (in test [1]; in “PubChem AID 1597”) were 7.14 and 0.715, respectively.
